Measurements: US20090162869A1
Results are given in words; binding and its absence hold for the method and conditions named. Binding seen in cells or lysates may run through a third protein. Binding calls can cover weak binding; strength is not graded here.

Biological target: Myc tag-attached Plexin-A1 (full-length gene, expressed in 293T cells)
Assay: co-immunoprecipitation from co-transfected 293T cells with antibody to membrane molecule (A), Western blot of tag

binding: binds
B1: membrane molecule (A) of the present invention (PDC-TREM), mouse, full length (receptor)
chain: QNPELLRTQEGETVSVTCWYDSLYHSSEKIWCKQIDNLCYPFVSKSAEKPRFLIQQSSRFNFFTVTMTKLKMSDSGIYHCGIVANNTSVYLRNIHLVVSKGSSVVSTPDIIPATRLTKLPTLITTKHSPSDTTTTRSLPQPTTVVSSPDPRVIIINGTDADRGFVSSVTIPVVCGLLSKTLVFTVLFIVTQKSFGRQAMKAHNSNS
